Screening data

From PubChem BioAssay record AID912 (NCATS, 2007).

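A cell-based FRET test of anthrax lethal toxin entry, tracked through the 460 nm emission signal; the cell line is not named here.
Each compound was tested as a concentration series from about 0.0005 to 40 µM.
The number is the fitted AC50 of the 460 nm signal alone; lower values mean a more potent effect. A falling signal goes with compounds filed as inhibitors or cytotoxic, a rising one with activators or fluorescent compounds (inferred from the filed classes).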

Values are in µM.
Common to all entries: measured here: 460 nm channel.
This is a side read-out of the assay, for part of the compounds, not drawn at random.
Potencies fitted to partial, single-point or poorly fitting curves are rough.
The first word of each remark tells which way the curve ran; it can be opposite to the aim of the assay.

structure: Cc1noc(C)c1S(=O)(=O)N(CC(=O)N1CCn2c1nc1ccccc12)c1ccc(C(C)C)cc1
AC50 (µM): 3.981
curve as filed: falling, single point

structure: C#CCN1C(C)=C(C(=O)CCO)[C@@H](c2cccc(-n3oo3)c2)C(C(=O)OC)=C1C
AC50 (µM): 12.59
curve as filed: falling, single point

structure: O=C(Nc1ccccc1C(=O)O)c1cccc(NC(=O)c2ccc(Br)o2)c1
AC50 (µM): 0.7943
curve as filed: rising, partial curve

structure: Clc1ccccc1-c1nc(Nc2ccncc2)c2ccccc2n1
AC50 (µM): 0.5012
curve as filed: falling, full curve

structure: CCN(CC)C[C@@H]1CCCCN1CC(=O)N1c2ccccc2C(=O)Nc2cccnc21
AC50 (µM): 12.59
curve as filed: falling, single point

structure: C1=C(CN2CCOCC2)COc2c1cccc2OC[C@@H]1CNCCO1
AC50 (µM): 12.59
curve as filed: falling, single point

structure: O=c1cnc2cncnc2n1Cc1ccccc1
AC50 (µM): 10
curve as filed: falling, partial curve

structure: O=c1c(CCc2ccccc2)nc2cnc(N3CCNCC3)nc2n1Cc1cccs1
AC50 (µM): 12.59
curve as filed: rising, partial curve

structure: Cc1c(NS(=O)(=O)c2ccc3c(c2)n(C)c(=O)n3C)c(=O)n(-c2ccccc2)n1C
AC50 (µM): 0.7943
curve as filed: falling, full curve, poor fit

structure: O=C(Nc1nc2ccccc2s1)C1CCCN1S(=O)(=O)c1ccc(Cl)cc1 (configuration not stated)
AC50 (µM): 15.85
curve as filed: falling, partial curve

structure: CCCCCC1=C2CNC(CC(C)C)(C(=O)OC)C=C2C(C)C1=O (configuration not stated)
AC50 (µM): 0.1
curve as filed: falling, single point

structure: COc1cc(CC(NC(C)=O)C(=O)NC2CCN(c3nc(C)cc(C)c3C#N)CC2)cc(OC)c1 (configuration not stated)
AC50 (µM): 5.012
curve as filed: rising, single point

structure: COC(=O)C(CC(=O)c1ccc(Br)cc1)n1ccnc1 (configuration not stated)
AC50 (µM): 25.12
curve as filed: falling, partial curve

structure: COc1ccc(CNc2ccnc(-c3ccccc3OC)n2)c(OC)c1
AC50 (µM): 25.12
curve as filed: falling, single point

structure: CC1(C)Cc2c(C#N)c(N3CCCC3)nc(-c3ccco3)c2CO1
AC50 (µM): 10
curve as filed: rising, partial curve

structure: COc1ncc2nc(-c3cccs3)c(=O)n(Cc3cccs3)c2n1
AC50 (µM): 10
curve as filed: rising, partial curve

structure: Nn1c(Nc2ccccc2)nc2sc3c(c2c1=O)CCC3
AC50 (µM): 25.12
curve as filed: falling, single point

structure: Cc1ccc(OCC(=O)n2cnnc2N)c(C)c1
AC50 (µM): 15.85
curve as filed: falling, single point

structure: COc1cc(C2NCc3ccccc3-n3cccc32)ccc1O (configuration not stated)
AC50 (µM): 0.3981
curve as filed: falling, full curve, poor fit

structure: OCCn1c(CSc2nnc(-c3ccco3)n2-c2ccccc2)nc2ccc(Cl)cc21
AC50 (µM): 0.1
curve as filed: falling, full curve

structure: COc1cccc(Cn2c(=O)c(-c3ccc(Cl)cc3)nc3cnc(N4CCN(C)CC4)nc32)c1
AC50 (µM): 1
curve as filed: rising, full curve

structure: Cc1nc(SCCO)c2oc3ccccc3c2n1
AC50 (µM): 1
curve as filed: falling, partial curve

structure: C[C@@H]1CC[C@H]2C(=O)N3[C@@H](CC[C@@H](C)[C@@H]3c3ccc(Br)cc3)C(=O)N2[C@@H]1c1ccc(Br)cc1
AC50 (µM): 3.162
curve as filed: falling, single point

structure: CCN(CC)C(=O)C1CCN(Cc2cccc(OCc3ccccc3)c2)CC1
AC50 (µM): 1
curve as filed: falling, partial curve, poor fit

structure: CCC(C(=O)N1CCC2(CC1)OCCO2)c1ccccc1 (configuration not stated)
AC50 (µM): 2.512
curve as filed: rising, full curve, poor fit

structure: Cc1c(Cl)cccc1NC(=O)CN1C(=O)CSc2ncccc21
AC50 (µM): 19.95
curve as filed: falling, single point

structure: C=C(CO)[C@H]1Cc2c(ccc3c2O[C@H]2COc4cc(OC)c(OC)cc4[C@@H]2C3=O)O1
AC50 (µM): 12.59
curve as filed: falling, single point

structure: c1ccc(NCCCNc2ccccc2)cc1
AC50 (µM): 5.012
curve as filed: rising, single point

structure: CCc1cc2c(=O)n(Cc3ccco3)c(SCc3c(C)noc3C)nc2s1
AC50 (µM): 7.943
curve as filed: falling, partial curve

Repeated from the top, 3 entries:

* Cc1noc(C)c1S(=O)(=O)N(CC(=O)N1CCn2c1nc1ccccc12)c1ccc(C(C)C)cc1 | AC50 3.981 µM (falling, single point)
* C#CCN1C(C)=C(C(=O)CCO)[C@@H](c2cccc(-n3oo3)c2)C(C(=O)OC)=C1C | AC50 12.59 µM (falling, single point)
* O=C(Nc1ccccc1C(=O)O)c1cccc(NC(=O)c2ccc(Br)o2)c1 | AC50 0.7943 µM (rising, partial curve)